Experimental data: PubChem BioAssay AID624297 (National Center for Advancing Translational Sciences (NCATS), 2012)
The whole screen tested about 340,000 compounds, of which about 6,200 (1.8%) were called active. Inconclusive results, whose numbers are uncertain, are shown with a selection of clear calls. The call rests on the fitted dose curve; in most records, active means well fitted activation curve with a large enough effect; inconclusive means small, poorly fitted or top-dose-only effect; inactive means no such curve, though single readings can be large or run the other way. A potency beside an inconclusive call is a rough fit, not a confirmed value.

test: A quantitative high throughput screen for small molecules that induce DNA re-replication in SW480 colon adenocarcinoma cells.; further: nearly all actives have a fitted effect of over 55% in size; conditions: Hoechst DNA content imaging, 48 h; series mostly up to 46.1 µM
Procedure, shortened: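 First, 250 cells per well were seeded. Next, compound or vehicle (23 nL) was pinned in, plates sat 48 hr at 37 C. Finally Hoechst was added for 40 min before fluorescence scanning.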
Potency means the concentration at half of the fitted maximal effect.

Q: With O=C(c1cc(COc2ccc(F)cc2Cl)on1)N1CC[C@@H]2CCCC[C@H]2C1 as the compound, how does the Potency read?
A: Its Potency is inconclusive: 29.1 µM [activator, partial curve, poor fit].

Q: For CC(C)c1ccc(NC2CCCN(C(=O)c3cccs3)C2)cc1 (stereo not given), which Potency is on record?
A: The Potency was “inactive”.

Q: For Cc1cc(NC(=O)c2sc(Nc3ccc(F)c(Cl)c3)nc2N)no1, which Potency is on record?
A: The Potency was inconclusive: 20.6 µM [activator, partial curve, poor fit].

Q: For Cc1cccnc1NC(=O)c1ccc(S(=O)(=O)N2CCC(C)CC2)cc1, which Potency is on record?
A: Its Potency is inconclusive: 10.3 µM [activator, partial curve, poor fit].

Q: For C(=C\c1ccccc1)/CSc1nnc(-c2ccncc2)n1Cc1ccco1, which Potency is on record?
A: Its Potency is “inactive”.

Q: For N#C/C(=C\Nc1ccccn1)S(=O)(=O)c1ccc(Cl)cc1, which Potency is on record?
A: Its Potency is “inactive”.

Q: For Cc1ccc(CN(C(=O)C(F)(F)F)C(C(=O)NC2CCCCC2)c2ccco2)cc1 (stereo not given), which Potency is on record?
A: Its Potency is inconclusive: 29.1 µM [activator, partial curve, poor fit].

Q: For CCn1c(SCC(N)=O)nc2cc(S(=O)(=O)N3CCOCC3)ccc21, which Potency is on record?
A: The Potency was “inactive”.

Q: With Cc1cccc(C(=O)NCc2nnc(SCC(=O)Nc3nncs3)n2C)c1 as the compound, how does the Potency read?
A: The Potency was inconclusive: 0.501 µM [activator, full curve, poor fit].

Q: With COc1ccc(C(CNC(=O)c2cccc(Br)c2)N2CCCC2)cc1 (stereo not given) as the compound, how does the Potency read?
A: The Potency was inconclusive: 16.4 µM [activator, partial curve, poor fit].

Q: For CC[C@@H](C)[C@H](CNC)NC[C@@H](Cc1cccc2ccccc12)NCCc1cccc(C(F)(F)F)c1, which Potency is on record?
A: Its Potency is inconclusive: 18.4 µM [activator, single point].

Q: For CCOC(=O)C1(CCCc2ccccc2)CCN(C(=O)CCC2=NNC(=O)CC2)CC1, which Potency is on record?
A: Its Potency is “inactive”.

Q: Which Potency does the source give for CC(=O)Nc1ccc(C2=NN(c3ccccc3)C(c3ccccc3)C2)cc1 (stereo not given) here?
A: The Potency was inconclusive: 0.58 µM [activator, full curve, poor fit].

Q: Which Potency does the source give for Nn1c(COc2ccc(Cl)cc2)n[nH]c1=S here?
A: The Potency was “inactive”.

Q: For C/C(N)=C(/C#N)C(=O)CSc1nnc(NC(C)C)s1, which Potency is on record?
A: The Potency was inconclusive: 3.26 µM [activator, full curve, poor fit].

Q: For COC(=O)c1ccccc1C(=O)c1cccc2ccccc12, which Potency is on record?
A: The Potency was inconclusive: 29.1 µM [activator, single point].

Q: Which Potency does the source give for C=CCOc1ccc(C(=O)/C=C2/C(=O)Nc3ccccc32)cc1 here?
A: Its Potency is inconclusive: 23.1 µM [activator, single point].

Q: With O=C(Nn1c(O)c(C=C2N=c3ccccc3=N2)sc1=S)c1ccccc1 as the compound, how does the Potency read?
A: Its Potency is inconclusive: 29.1 µM [activator, single point].

Q: For CCOc1cc(/C=N/O)cc(Br)c1OCc1ccc(Cl)cc1, which Potency is on record?
A: The Potency was inconclusive: 29.1 µM [activator, single point].

Q: Which Potency does the source give for Cc1cccc(OCCCn2ccnc2)c1 here?
A: Its Potency is “inactive”.

Q: Which Potency does the source give for COc1ccc(C(=O)/C=C2/Sc3cc4c(cc3N2C)OCO4)cc1 here?
A: The Potency was inconclusive: 1.84 µM [activator, full curve, poor fit].

Q: For COc1ccccc1CCNC(=O)c1cccc(S(=O)(=O)NCc2ccccc2)c1, which Potency is on record?
A: Its Potency is “inactive”.

Q: Which Potency does the source give for Cc1c(Cc2ccccc2)c(=O)oc2cc(OCC(=O)NCc3ccccn3)ccc12 here?
A: The Potency was inconclusive: 2.91 µM [activator, single point].

Q: With CCOc1ccc(NS(=O)(=O)c2cc(NC(=O)c3cccc(C)c3)ccc2Cl)cc1 as the compound, how does the Potency read?
A: The Potency was inconclusive: 20.6 µM [activator, single point].

Q: Which Potency does the source give for COc1ccc(-c2ccc3c(c2)[C@@H]2C[C@H](N(C)C(=O)Nc4ccccc4)[C@H]([C@H](C)O)C(=O)N2CC3)cc1 here?
A: Its Potency is inconclusive: 1.64 µM [activator, partial curve, poor fit].

Q: Which Potency does the source give for O=C(N/N=C/c1ccoc1)c1ccccc1F here?
A: Its Potency is “inactive”.

Q: Which Potency does the source give for COc1cccc(OCc2nc3ccccc3[nH]2)c1 here?
A: The Potency was “inactive”.

Q: With CCC(C)c1ccccc1NC(=O)CN(C)CCOc1ccc(Cl)cc1 (stereo not given) as the compound, how does the Potency read?
A: The Potency was inconclusive: 25.9 µM [activator, single point].

Q: With C[C@@H](NC(=O)[C@@H]1Cc2ccccc2CN1C(=O)OC(C)(C)C)C(=O)NC1CCCC1 as the compound, how does the Potency read?
A: Its Potency is inconclusive: 29.1 µM [activator, single point].

Q: For CCN1C(=O)c2cccc3c(S(=O)(=O)NCc4ccccc4)ccc1c23, which Potency is on record?
A: Its Potency is inconclusive: 29.1 µM [activator, single point].

Q: For CC(=O)c1ccc(S(=O)(=O)Nc2c(C)nn(C)c2C)cc1, which Potency is on record?
A: The Potency was “inactive”.

Q: With COc1ccc(S(=O)(=O)N2CCCCC2)cc1NC(=O)c1ccc(N2CCCC2=O)cc1 as the compound, how does the Potency read?
A: The Potency was inconclusive: 20.6 µM [activator, partial curve, poor fit].

Q: With CCCCc1c(C)nc2ccc(Br)cc2c1SC(N)N as the compound, how does the Potency read?
A: The Potency was “inactive”.

Q: Which Potency does the source give for CC(C)CN(C(=O)COC(=O)c1ccc([N+](=O)[O-])s1)c1c(N)n(Cc2ccccc2)c(=O)[nH]c1=O here?
A: Its Potency is inconclusive: 23.1 µM [activator, single point].

Q: With Cc1ccc(CN2CCN(Cc3cc4ccccc4o3)CC2CCO)cc1 (stereo not given) as the compound, how does the Potency read?
A: The Potency was “inactive”.

Q: For CCC(CO)Oc1cc(NCc2cc(C)cc(C)c2)c2ncn(C(C)C)c2c1 (stereo not given), which Potency is on record?
A: The Potency was “inactive”.

Q: For Cc1ccc(-n2ncc3c2CCCC3NC(=O)c2ccccc2N2CCOCC2)cc1C (stereo not given), which Potency is on record?
A: The Potency was “inactive”.

Q: Which Potency does the source give for Cc1cccc(Oc2sc(C(=O)c3ccccc3)c(N)c2C#N)c1C here?
A: The Potency was “inactive”.

Q: With O=C(Nc1ccc2c(c1)OCCO2)c1cccs1 as the compound, how does the Potency read?
A: The Potency was “inactive”.

Q: With CCC(=O)Nc1ccc(-c2ccc(NC(=O)CC)c(OC)c2)cc1OC as the compound, how does the Potency read?
A: Its Potency is inconclusive: 20.6 µM [activator, partial curve, poor fit].

Q: With CCc1cc(OCCCCNCc2ccccc2)ccc1Cl as the compound, how does the Potency read?
A: The Potency was inconclusive: 18.4 µM [activator, single point].

Q: Which Potency does the source give for c1ccc(-c2ccc(OCCCn3cncn3)cc2)cc1 here?
A: Its Potency is “inactive”.

Q: With OC(COc1cccc2ccccc12)CN1CCN(c2ccccc2Cl)CC1 (stereo not given) as the compound, how does the Potency read?
A: Its Potency is inconclusive: 29.1 µM [activator, single point].

Q: Which Potency does the source give for O=C(CSc1nnc(-c2cccnc2)n1Cc1ccco1)N1c2ccccc2Sc2ccccc21 here?
A: Its Potency is “inactive”.

Q: For COc1cccc(CN(C)C(=O)c2cc(-c3ccc(OC)c(OC)c3)nc3ccccc23)c1, which Potency is on record?
A: The Potency was inconclusive: 23.1 µM [activator, partial curve, poor fit].
